Assay results from patent US20150232546A1 (THROMBOGENICS, published 2015).
These are yes or no findings as the source states them, for the method shown. Some results given as binding are weak or reduced against the parent protein; the word gives no strength.

Sequences of proteins named here, by UniProt entry; tags and fusion partners are left off. Residues count along the entry.
UniProt Q9NRA1, residues 23-345: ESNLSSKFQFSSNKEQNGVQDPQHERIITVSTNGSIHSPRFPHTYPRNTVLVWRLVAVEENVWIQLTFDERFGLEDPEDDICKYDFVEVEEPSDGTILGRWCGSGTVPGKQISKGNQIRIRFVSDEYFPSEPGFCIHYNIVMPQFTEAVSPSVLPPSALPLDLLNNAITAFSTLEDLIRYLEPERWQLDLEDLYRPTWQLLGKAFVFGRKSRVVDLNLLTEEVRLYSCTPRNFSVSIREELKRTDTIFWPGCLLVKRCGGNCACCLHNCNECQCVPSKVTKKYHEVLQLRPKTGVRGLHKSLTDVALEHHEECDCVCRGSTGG

Key:
[1] = biological target: full-length human PDGF-C (Example 6) (human) (UniProt Q9NRA1); assay: ELISA
[2] = biological target: T1, human PDGF-C peptide no. 27 (human); assay: peptide ELISA
T1 peptide: Biotin-EPGFCIHYNIVMPQF

[3] = biological target: T2, human PDGF-C peptide no. 1 (human); assay: peptide ELISA
T2 sequence (peptide, N-terminally biotinylated): ESNLSSKFQFSSNKE

[4] = biological target: T3, human PDGF-C peptide no. 10 (human); assay: peptide ELISA
T3 sequence (peptide, N-terminally biotinylated): PRNTVLVWRLVAVEE

[5] = biological target: T4, human PDGF-C peptide no. 12 (human); assay: peptide ELISA
T4 sequence (peptide, N-terminally biotinylated): VAVEENVWIQLTFDE

[6] = biological target: T5, human PDGF-C peptide no. 13 (human); assay: peptide ELISA
T5 sequence (peptide, N-terminally biotinylated): NVWIQLTFDERFGLE

[7] = biological target: T6, human PDGF-C peptide no. 14 (human); assay: peptide ELISA
T6 sequence (peptide, N-terminally biotinylated): LTFDERFGLEDPEDD

[8] = biological target: T7, human PDGF-C peptide no. 15 (human); assay: peptide ELISA
T7 sequence (peptide, N-terminally biotinylated): RFGLEDPEDDICKYD

[9] = biological target: T8, human PDGF-C peptide no. 16 (human); assay: peptide ELISA
T8 sequence (peptide, N-terminally biotinylated): DPEDDICKYDFVEVE

[10] = biological target: T9, human PDGF-C peptide no. 17 (human); assay: peptide ELISA
T9 sequence (peptide, N-terminally biotinylated): ICKYDFVEVEEPSDG

[11] = biological target: T10, human PDGF-C peptide no. 18 (human); assay: peptide ELISA
T10 sequence (peptide, N-terminally biotinylated): FVEVEEPSDGTILGR

[12] = biological target: T11, human PDGF-C peptide no. 2 (human); assay: peptide ELISA
T11 sequence (peptide, N-terminally biotinylated): SKFQFSSNKEQNGVQ

[13] = biological target: T12, human PDGF-C peptide no. 21 (human); assay: peptide ELISA
T12 sequence (peptide, N-terminally biotinylated): WCGSGTVPGKQISKG

[14] = biological target: T13, human PDGF-C peptide no. 22 (human); assay: peptide ELISA
T13 sequence (peptide, N-terminally biotinylated): TVPGKQISKGNQIRI

[15] = biological target: T14, human PDGF-C peptide no. 23 (human); assay: peptide ELISA
T14 sequence (peptide, N-terminally biotinylated): QISKGNQIRIRFVSD

[16] = biological target: T15, human PDGF-C peptide no. 25 (human); assay: peptide ELISA
T15 sequence (peptide, N-terminally biotinylated): RFVSDEYFPSEPGFC

[17] = biological target: T16, human PDGF-C peptide no. 26 (human); assay: peptide ELISA
T16 sequence (peptide, N-terminally biotinylated): EYFPSEPGFCIHYNI

[18] = biological target: T17, human PDGF-C peptide no. 28 (human); assay: peptide ELISA
T17 sequence (peptide, N-terminally biotinylated): IHYNIVMPQFTEAVS

[19] = biological target: T18, human PDGF-C peptide no. 29 (human); assay: peptide ELISA
T18 sequence (peptide, N-terminally biotinylated): VMPQFTEAVSPSVLP

[20] = biological target: T19, human PDGF-C peptide no. 30 (human); assay: peptide ELISA
T19 sequence (peptide, N-terminally biotinylated): TEAVSPSVLPPSALP

[21] = biological target: T20, human PDGF-C peptide no. 32 (human); assay: peptide ELISA
T20 sequence (peptide, N-terminally biotinylated): PSALPLDLLNNAITA

[22] = biological target: T21, human PDGF-C peptide no. 33 (human); assay: peptide ELISA
T21 sequence (peptide, N-terminally biotinylated): LDLLNNAITAFSTLE

[23] = biological target: T22, human PDGF-C peptide no. 34 (human); assay: peptide ELISA
T22 sequence (peptide, N-terminally biotinylated): NAITAFSTLEDLIRY

[24] = biological target: T23, human PDGF-C peptide no. 35 (human); assay: peptide ELISA
T23 sequence (peptide, N-terminally biotinylated): FSTLEDLIRYLEPER

[25] = biological target: T24, human PDGF-C peptide no. 36 (human); assay: peptide ELISA
T24 sequence (peptide, N-terminally biotinylated): DLIRYLEPERWQLDL

[26] = biological target: T25, human PDGF-C peptide no. 37 (human); assay: peptide ELISA
T25 sequence (peptide, N-terminally biotinylated): LEPERWQLDLEDLYR

[27] = biological target: T26, human PDGF-C peptide no. 38 (human); assay: peptide ELISA
T26 sequence (peptide, N-terminally biotinylated): WQLDLEDLYRPTWQL

[28] = biological target: T27, human PDGF-C peptide no. 39 (human); assay: peptide ELISA
T27 sequence (peptide, N-terminally biotinylated): EDLYRPTWQLLGKAF

[29] = biological target: T28, human PDGF-C peptide no. 4 (human); assay: peptide ELISA
T28 sequence (peptide, N-terminally biotinylated): QNGVQDPQHERIITV

[30] = biological target: T29, human PDGF-C peptide no. 41 (human); assay: peptide ELISA
T29 sequence (peptide, N-terminally biotinylated): LGKAFVFGRKSRVVD

[31] = biological target: T30, human PDGF-C peptide no. 43 (human); assay: peptide ELISA
T30 sequence (peptide, N-terminally biotinylated): SRVVDLNLLTEEVRL

[32] = biological target: T31, human PDGF-C peptide no. 44 (human); assay: peptide ELISA
T31 sequence (peptide, N-terminally biotinylated): LNLLTEEVRLYSCTP

[33] = biological target: T32, human PDGF-C peptide no. 46 (human); assay: peptide ELISA
T32 sequence (peptide, N-terminally biotinylated): YSCTPRNFSVSIREE

[34] = biological target: T33, human PDGF-C peptide no. 48 (human); assay: peptide ELISA
T33 sequence (peptide, N-terminally biotinylated): SIREELKRTDTIFWP

[35] = biological target: T34, human PDGF-C peptide no. 49 (human); assay: peptide ELISA
T34 sequence (peptide, N-terminally biotinylated): LKRTDTIFWPGCLLV

[36] = biological target: T35, human PDGF-C peptide no. 5 (human); assay: peptide ELISA
T35 sequence (peptide, N-terminally biotinylated): DPQHERIITVSTNGS

[37] = biological target: T36, human PDGF-C peptide no. 50 (human); assay: peptide ELISA
T36 sequence (peptide, N-terminally biotinylated): TIFWPGCLLVKRCGG

[38] = biological target: T37, human PDGF-C peptide no. 53 (human); assay: peptide ELISA
T37 sequence (peptide, N-terminally biotinylated): NCACCLHNCNECQCV

[39] = biological target: T38, human PDGF-C peptide no. 54 (human); assay: peptide ELISA
T38 sequence (peptide, N-terminally biotinylated): LHNCNECQCVPSKVT

[40] = biological target: T39, human PDGF-C peptide no. 55 (human); assay: peptide ELISA
T39 sequence (peptide, N-terminally biotinylated): ECQCVPSKVTKKYHE

[41] = biological target: T40, human PDGF-C peptide no. 56 (human); assay: peptide ELISA
T40 sequence (peptide, N-terminally biotinylated): PSKVTKKYHEVLQLR

[42] = biological target: T41, human PDGF-C peptide no. 57 (human); assay: peptide ELISA
T41 sequence (peptide, N-terminally biotinylated): KKYHEVLQLRPKTGV

[43] = biological target: T42, human PDGF-C peptide no. 59 (human); assay: peptide ELISA
T42 sequence (peptide, N-terminally biotinylated): PKTGVRGLHKSLTDV

[44] = biological target: T43, human PDGF-C peptide no. 6 (human); assay: peptide ELISA
T43 sequence (peptide, N-terminally biotinylated): RIITVSTNGSIHSPR

[45] = biological target: T44, human PDGF-C peptide no. 60 (human); assay: peptide ELISA
T44 sequence (peptide, N-terminally biotinylated): RGLHKSLTDVALEHH

[46] = biological target: T45, human PDGF-C peptide no. 62 (human); assay: peptide ELISA
T45 sequence (peptide, N-terminally biotinylated): ALEHHEECDCVCRGS

[47] = biological target: T46, human PDGF-C peptide no. 63 (human); assay: peptide ELISA
T46 sequence (peptide, N-terminally biotinylated): EECDCVCRGSTGG

[48] = biological target: T47, human PDGF-C peptide no. 8 (human); assay: peptide ELISA
T47 sequence (peptide, N-terminally biotinylated): IHSPRFPHTYPRNTV

B1: anti-PDGF-C antibody 16B1 (antibody, IgG1, V domains shown)
VH: EVQLVESGGDLVKPGGSLKLSCAASGFTFSNYGMSWVRQTPDKRLEWVATIGSGGSYTYYPDSVKGRFTISRDSAKNTLYLQMSSLKSEDTAMYYCARQAPLWDYSDYWGQGTTLTVSS
VL: DVLMTQTPLSLPVSLGDQASISCRSNQSIVHSNGDTYLEWYLQKPGQSPKLLIYKVSNRFSGVPDRFSGSGSGTDFTLKISRVEAEDLGVYYCFQGSHVPPTFGGGTKLEIK
notes: Mouse monoclonal from hybridoma, IgG1, kappa; VH same as 2D3, VL same as 5A2; also called mAb 16B1; hybridoma LMBP 9486CB
In the case of B1, the binding [1] is reported as “binds”, the binding [2] is reported as “no binding (tested: 1 µg/mL)” and the binding [3] is reported as “no binding (tested: 1 µg/mL)”. The binding [4] was “no binding (tested: 1 µg/mL)”, the binding [5] was “no binding (tested: 1 µg/mL)” and the binding [6] was “no binding (tested: 1 µg/mL)”. For the same binder, the binding [7] was “no binding (tested: 1 µg/mL)”, the binding [8] was “no binding (tested: 1 µg/mL)” and the binding [9] was “no binding (tested: 1 µg/mL)”. The binding [10] was “no binding (tested: 1 µg/mL)”, the binding [11] was “no binding (tested: 1 µg/mL)” and the binding [12] was “no binding (tested: 1 µg/mL)”. The binding [13] was “no binding (tested: 1 µg/mL)”, the binding [14] was “no binding (tested: 1 µg/mL)” and the binding [15] was “no binding (tested: 1 µg/mL)”. For the same binder, the binding [16] was “no binding (tested: 1 µg/mL)”, the binding [17] was “no binding (tested: 1 µg/mL)” and the binding [18] was “no binding (tested: 1 µg/mL)”. For the same binder, the binding [19] was “no binding (tested: 1 µg/mL)”, the binding [20] was “no binding (tested: 1 µg/mL)” and the binding [21] was “no binding (tested: 1 µg/mL)”. The binding [22] was “no binding (tested: 1 µg/mL)”, the binding [23] was “no binding (tested: 1 µg/mL)” and the binding [24] was “no binding (tested: 1 µg/mL)”. The binding [25] was “no binding (tested: 1 µg/mL)”, the binding [26] was “no binding (tested: 1 µg/mL)” and the binding [27] was “no binding (tested: 1 µg/mL)”. For the same binder, the binding [28] was “no binding (tested: 1 µg/mL)”, the binding [29] was “no binding (tested: 1 µg/mL)” and the binding [30] was “no binding (tested: 1 µg/mL)”. For the same binder, the binding [31] was “no binding (tested: 1 µg/mL)”, the binding [32] was “no binding (tested: 1 µg/mL)” and the binding [33] was “no binding (tested: 1 µg/mL)”. For the same binder, the binding [34] was “no binding (tested: 1 µg/mL)”, the binding [35] was “no binding (tested: 1 µg/mL)” and the binding [36] was “no binding (tested: 1 µg/mL)”. For the same binder, the binding [37] was “no binding (tested: 1 µg/mL)”, the binding [38] was “no binding (tested: 1 µg/mL)” and the binding [39] was “no binding (tested: 1 µg/mL)”. For the same binder, the binding [40] was “no binding (tested: 1 µg/mL)”, the binding [41] was “no binding (tested: 1 µg/mL)” and the binding [42] was “no binding (tested: 1 µg/mL)”. For the same binder, the binding [43] was “no binding (tested: 1 µg/mL)”, the binding [44] was “no binding (tested: 1 µg/mL)” and the binding [45] was “no binding (tested: 1 µg/mL)”. The binding [46] was “no binding (tested: 1 µg/mL)”, the binding [47] was “no binding (tested: 1 µg/mL)” and the binding [48] was “no binding (tested: 1 µg/mL)”.
